Test system: fresh-cut apple slices
Assay: Chromatic aberration of fresh-cut apple slices soaked by samples
Conditions: soaked in 1 mM for 10 min, observed 0.17–24.17 h

Row | Structure (SMILES) | inhibition of browning of apple slices
1 | O=c1cc(CO)occ1O [kojic acid] | reduce apple slices browning to some extent
2 | OC[C@H]1O[C@@H](Oc2ccc(O)cc2)[C@H](O)[C@@H](O)[C@@H]1O [β-arbutin] | reduce apple slices browning to some extent

Source: publication PMC10093845, “Inhibitory Activities of Samples on Tyrosinases Were Affected by Enzyme Species and Sample Addition Methods” (International Journal of Molecular Sciences, 2023)
